The record followed here is paper PMC8657912, “Substrate-Dependent Trans-Stimulation of Organic Cation Transporter 2 Activity” (International Journal of Molecular Sciences, 2021).

Test [1] addresses T1, human OCT2 (Homo sapiens, UniProt O15244).
T1 sequence (O15244 1-555): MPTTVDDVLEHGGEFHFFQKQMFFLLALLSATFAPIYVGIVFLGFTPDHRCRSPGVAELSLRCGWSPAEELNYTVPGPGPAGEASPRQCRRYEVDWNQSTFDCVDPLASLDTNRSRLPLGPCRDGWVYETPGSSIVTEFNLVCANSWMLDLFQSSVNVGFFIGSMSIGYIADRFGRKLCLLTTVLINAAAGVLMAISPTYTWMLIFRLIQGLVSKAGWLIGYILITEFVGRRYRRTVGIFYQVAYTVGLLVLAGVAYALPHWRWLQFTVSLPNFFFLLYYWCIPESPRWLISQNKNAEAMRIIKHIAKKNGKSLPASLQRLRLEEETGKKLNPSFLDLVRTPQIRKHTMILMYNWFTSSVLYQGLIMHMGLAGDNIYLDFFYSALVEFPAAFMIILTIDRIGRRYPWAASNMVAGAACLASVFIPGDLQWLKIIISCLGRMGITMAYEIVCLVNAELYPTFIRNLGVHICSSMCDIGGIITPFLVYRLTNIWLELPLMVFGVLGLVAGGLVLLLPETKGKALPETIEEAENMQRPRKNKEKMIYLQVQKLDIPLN
The test is described as follows: Uptake trans-stimulation assay of OCT2-mediated DiASP uptake in HEK-OCT2 cells. The format is cell-based. Set-up: host or cells: HEK293 (HEK-OCT2). The settings on record: HEK-OCT2 cells preloaded 30 min 37 °C, washed, then 10 µM DiASP 5 min. The method, then: Uptake trans-stimulation assays were performed as schematically depicted in Figure 4.
Figure 4 Schematic representation of the various steps of the trans-stimulation assay performed for investigating OCT2 substrates (created with biorender.com). Step 1 corresponds to the initial incubation of cells without (Control) or with candidate substrate for 30 min at 37 °C. Step 2 consists of the incubation of cells with the reference tracer substrate (DiASP) for 5 min at 37 °C. Step 3 is the measurement of cellular accumulation of DiASP through spectrofluorimetry.
(§1) They were cultured in Dulbecco’s modified Eagle medium (DMEM) (Life Technologies, Carlsbad, CA, USA), supplemented with 10% (vol/vol) fetal calf serum, 10 IU/mL penicillin, 10 μg/mL streptomycin, 1% non-essential amino acids, and 1 μg/mL insulin, as already reported.
OCT2 trans-stimulation assays were performed through monitoring cellular uptake of the tracer substrate DiASP. As schematically depicted in Figure 4, HEK-OCT2 cells were first incubated in the absence (control) or presence of different concentrations of OCT2 substrates for 30 min at 37 °C in the transport assay medium described above. […] Cellular accumulation of the fluorescence dye was next determined by spectrofluorimetry, as reported above. Data were commonly expressed as % of DiASP uptake in control cells, set at 100%, or as fluorescence arbitrary units (FAU)/mg protein.

In test [2] the target is T1, human OCT2. Description: Cis-inhibition of OCT2-mediated DiASP uptake in HEK-OCT2 cells. The method, then: as §1
Cis-inhibition of OCT2 activity was analysed as previously described. Briefly, HEK-OCT2 cells were incubated with 10 µM DiASP, in the absence (control) of the presence of 100 µM amitriptyline (used here as a reference inhibitor of OCT2 activity) or of various concentrations of the OCT2 substrates, for 5 min. The transport assay medium consisted of 5.3 mM KCl, 1.1 mM KH2PO4, 0.8 mM MgSO4, 1.8 mM CaCl2, 11 mM dextrose, 10 mM HEPES, and 136 mM NaCl, adjusted to pH = 7.4. Next, cells were washed with phosphate-buffered saline (PBS) and lysed in distilled water. Intracellular accumulation of DiASP was then determined by spectrofluorimetry using a PerkinElmer Enspire spectrofluorometer (Waltham, MA, USA); excitation and emission wavelengths were 485 nm and 607 nm, respectively. DiASP accumulation values were thereafter normalized to total protein content, determined by the Bradford method.
IC50 values of OCT2 substrates towards OCT2-mediated uptake of DiASP and the corresponding 95% confidence intervals were determined from nonlinear regression of concentration-response data, based on the four-parameter logistic function. […]

The IC50 is the concentration at which inhibition is half-maximal. A higher IC50 goes with a need for much substance. Consider `CC(C)[N+]1(C)[C@@H]2CC[C@H]1C[C@@H](OC(=O)C(CO)c1ccccc1)C2` (some centres unmarked) [Ipratropium, ipratropium], for which the “Lowest trans-inhibiting concentration towards DiASP uptake” value at human OCT2 [1] turned out to be 1 µM. The same compound registered an IC50 at human OCT2 [2] of 240 nM.
